One experiment concerns male NMR.tau. mice. Description: Sleep duration, prolongation of sleeping time and ED50 under the influence of cinnarizine (Table 3). The format is in vivo, mouse. The text has this: (§1) A typical representative from the group of barbiturates with long action (phenobarbital), with short to average action (cyclobarbital-calcium) as well as ultra short action (hexobarbital) as well as a combination of two barbiturates (cyclobarbital-calcium+hexobarbital) was applied orally in graduated doses.

The next experiment relates to male NMRJ mice. The experiment can be described thus: Sleeping time prolongation under the influence of cinnarizine and flunarizine (ED50). In kind it is in vivo, mouse. The conditions noted are these: for ED50: sleeping time increased by 50%.
From the text: as §1
Determination of the sleeping time prolongation under the influence of […]

Broadly, the ED50 is the midpoint of the dose-response relation.

In the case of `C(=C\c1ccccc1)/CN1CCN(C(c2ccccc2)c2ccccc2)CC1` [Cinnarizine, 1-benzhydryl-4-trans-cinnamylpiperazine], the 50% effective dose (ED50) was 3.52 mg/kg with male NMR.tau. mice (cinnarizine with cyclobarbital calcium 239 mg/kg, range (3.07-4.21)); 4.94 mg/kg in the experiment on male NMR.tau. mice (cinnarizine with cyclobarbital calcium + hexobarbital (40 + 30) 225 mg/kg, range (4.19-6.49)); 0.77 mg/kg in the experiment on male NMR.tau. mice (cinnarizine with hexobarbital 710 mg/kg); 2.77 mg/kg in the experiment with male NMRJ mice (cinnarizine with cyclobarbital-Ca 239 mg/kg, probit analysis); 4.68 mg/kg with male NMRJ mice (cinnarizine with cyclobarbital-Ca + hexobarbital (40 + 30) 225 mg/kg); 0.75 mg/kg with male NMRJ mice (cinnarizine with hexobarbital 710 mg/kg, probit analysis). Further, in the experiment with male NMRJ mice (cinnarizine with phenobarbital 256 mg/kg, probit analysis), the 50% effective dose (ED50) worked out at 3.57 mg/kg. Further, the “Dosage to obtain an ED50 with the combination of both barbiturates” value in the experiment on male NMRJ mice (in comparison with the individual barbiturates) was “higher dosages”. Besides, the “Potency in the case of hexobarbital” value with male NMRJ mice (with hexobarbital) was “highest potency”.

Values taken from patent publication US4505914A, “Pharmaceutical for the treatment of sleep disorders” (Merckle GmbH, priority 1982, dated 1985).
